Paper PMC5896956, “Small molecule induced oligomerization, clustering and clathrin-independent endocytosis of the dopamine transporter” (eLife, 2018)
No constants are given. Whether binding was seen depends on the method and setting. Some entries that bind do so weakly or less than the wild type.

The chains behind the UniProt entries cited, without tags or fusion partners.
UniProt Q01959, whole entry: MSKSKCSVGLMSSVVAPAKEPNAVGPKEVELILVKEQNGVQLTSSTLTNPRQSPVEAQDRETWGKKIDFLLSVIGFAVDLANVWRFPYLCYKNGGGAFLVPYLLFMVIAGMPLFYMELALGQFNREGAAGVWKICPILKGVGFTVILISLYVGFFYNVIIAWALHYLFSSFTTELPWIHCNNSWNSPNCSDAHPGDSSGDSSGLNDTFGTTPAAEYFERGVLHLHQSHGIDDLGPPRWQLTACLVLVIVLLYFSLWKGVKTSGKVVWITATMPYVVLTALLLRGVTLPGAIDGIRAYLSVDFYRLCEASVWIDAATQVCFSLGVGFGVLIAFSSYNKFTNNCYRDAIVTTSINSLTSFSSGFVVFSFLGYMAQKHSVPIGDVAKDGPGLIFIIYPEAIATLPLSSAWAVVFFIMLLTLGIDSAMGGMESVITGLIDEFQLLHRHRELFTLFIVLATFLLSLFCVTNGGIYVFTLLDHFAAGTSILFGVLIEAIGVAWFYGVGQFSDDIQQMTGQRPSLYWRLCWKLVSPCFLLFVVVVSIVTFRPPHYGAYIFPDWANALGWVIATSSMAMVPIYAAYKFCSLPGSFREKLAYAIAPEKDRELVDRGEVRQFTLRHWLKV

Biological target: YFP-DAT additionally tagged with an extracellular hemagglutinin (HA) epitope (YFP-HA-DAT) (human) (UniProt Q01959)
Assay: SDS-resistant oligomers on SDS-PAGE and western blot; PAE cells stably expressing the tagged transporter, vehicle (DMSO) or 20 µM AIM-100 for 2 hr at 37°C (also after cocaine, dopamine, amphetamine, modafinil, KRCA-0008, CHC siRNA, at 4°C or 20°C); lysis in TGH buffer, Laemmli buffer (2% SDS, 5% β-mercaptoethanol) 5 min at 95°C, 7.5% SDS-PAGE, blot with GFP antibody; oligomers (O) against monomers (M)

YFP-DAT additionally tagged with an extracellular hemagglutinin (HA) epitope (YFP-HA-DAT) (from UniProt Q01959 1-620)
binding: binds
